Results from publication doi:10.1101/2023.08.11.553033.
Construct, isoform or probe ends are uncertain for at least one entry. For part of these data: Weaker means in comparison with the reference protein, sequence or condition of that experiment. At least one verdict rests on a figure or table, not on a statement of the authors. Where a protein sequence is shown, tags need not be part of it.

Key:
[1] = biological target: T1, Pdr3p DBD (Saccharomyces cerevisiae) (UniProt P33200); test: fluorescence polarization; conditions: residues 1-184
T1 sequence (looked up): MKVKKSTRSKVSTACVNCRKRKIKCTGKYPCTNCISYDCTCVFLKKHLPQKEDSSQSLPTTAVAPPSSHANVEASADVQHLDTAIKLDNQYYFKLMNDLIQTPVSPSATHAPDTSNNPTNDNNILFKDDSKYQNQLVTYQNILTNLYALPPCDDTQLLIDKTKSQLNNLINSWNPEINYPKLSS

[2] = biological target: T2, Pdr1p DBD (Saccharomyces cerevisiae) (UniProt P12383); test: fluorescence polarization; conditions: residues 1-207
T2 sequence (looked up): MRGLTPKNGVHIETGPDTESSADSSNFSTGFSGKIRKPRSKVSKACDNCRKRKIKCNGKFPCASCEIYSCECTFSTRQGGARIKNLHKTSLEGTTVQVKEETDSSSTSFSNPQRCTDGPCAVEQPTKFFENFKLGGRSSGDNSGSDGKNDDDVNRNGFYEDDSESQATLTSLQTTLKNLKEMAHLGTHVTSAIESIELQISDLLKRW

[3] = biological target: T1, Pdr3p DBD (Saccharomyces cerevisiae); test: competition fluorescence polarization; conditions: vs FAM-PDR5_4; residues 1-184
[4] = type D weaker, slightly tighter than half site (229 nM)

With “AAACGTCCGTGGAGAACC (double strand) [PDR5_4 18mer]” the Kd ([1]; derived: 1.44-fold tighter than PDR5_2) was 197 nM and the Kd [2] was 118 nM.
“AAACTTCCGTGGAAAACC (double strand) [PDR5_4 G4T G14A (paper numbering)]”: binds [3].
“ACCTTTCCGCGCATATAC (double strand) [Fig 4 type C PDRE (ACCTTTCCGCGCATATAC)]”: binds ([1]; type C strongest class); binds more weakly ([2]; type C weaker than A and B).
“ATGTCTCCGCGGAACTCT (double strand) [PDR5_1 18mer]” was tested, and the Kd [1] was 173 nM and the Kd ([2]; derived: PDR5_3 binds 1.76-fold tighter) was 92 nM.
“ATTTCTCCGCGGAATTAC (double strand) [Fig 4 type A PDRE (ATTTCTCCGCGGAATTAC)]”: binds more weakly ([1]; type A among weakest); binds ([2]; type A: highest affinity class).
“CAGTTTCCGCGCAAGAAT (double strand) [Fig 4 type C PDRE (CAGTTTCCGCGCAAGAAT)]”: binds ([1]; type C strongest class); binds more weakly ([2]; type C weaker than A and B).
“CGGACTCCGCGCAAGAAT (double strand) [Fig 4 type C PDRE (CGGACTCCGCGCAAGAAT)]”: binds ([1]; type C strongest class); binds more weakly ([2]; type C weaker than A and B).
For “CTCTTTCCGCGGAATCGC (double strand) [PDR5_3 18mer]”, the Kd ([1]; derived: PDR5_1 binds 1.12-fold tighter) was 194 nM and the Kd [2] was 52 nM.
“GGCACTCCGCGGGGCCCG (double strand) [Fig 4 type D PDRE (GGCACTCCGCGGGGCCCG)]”: binds more weakly ([1]; type D among weakest); binds more weakly [2, 4].
For “GTGATTCCGTGGAAAGGT (double strand) [PDR5_2 18mer]”, the Kd [1] was 284 nM and the Kd ([2]; derived: 1.33-fold tighter than PDR5_4) was 89 nM.
“TCGCTTCCGCGGGATGCC (double strand) [Fig 4 type D PDRE (TCGCTTCCGCGGGATGCC)]”: binds more weakly ([1]; type D among weakest); binds more weakly [2, 4].
“TCTGCTCCGTGGAACTAA (double strand) [Fig 4 type B PDRE (TCTGCTCCGTGGAACTAA)]”: binds [1]; binds [2].
“TTGTTTCCGCGGAGCTGC (double strand) [Fig 4 type A PDRE (TTGTTTCCGCGGAGCTGC)]”: binds more weakly ([1]; type A among weakest); binds ([2]; type A: highest affinity class).
“TTTATTCCGTGGAAAAGG (double strand) [Fig 4 type B PDRE (TTTATTCCGTGGAAAAGG)]”: binds [1]; binds [2].
